From PubChem BioAssay AID1671190 (National Center for Advancing Translational Sciences (NCATS), 2021)
Several values for one entry are separate records, joined by “and”; a condition that tells them apart may be missing. Identical values can stand only once. About 6,100 (1.1%) of roughly 580,000 compounds were called active. The inconclusive results got no clear call from the source; some entries with a clear call stand among them for comparison. Calls come from the whole dose curve; as a rule, active = well fitted inhibition curve with a large enough effect; inconclusive = small, poorly fitted or top-dose-only effect, or another doubt; inactive = no such curve, though single readings can be large or run the other way. Where the call is inconclusive, the potency comes from a doubtful curve fit.

Chains of the proteins cited; added tags and fusions are not shown. Lines headed by an entry give the natural chain unless they say otherwise; changes in a name come on top.
UniProt P18054: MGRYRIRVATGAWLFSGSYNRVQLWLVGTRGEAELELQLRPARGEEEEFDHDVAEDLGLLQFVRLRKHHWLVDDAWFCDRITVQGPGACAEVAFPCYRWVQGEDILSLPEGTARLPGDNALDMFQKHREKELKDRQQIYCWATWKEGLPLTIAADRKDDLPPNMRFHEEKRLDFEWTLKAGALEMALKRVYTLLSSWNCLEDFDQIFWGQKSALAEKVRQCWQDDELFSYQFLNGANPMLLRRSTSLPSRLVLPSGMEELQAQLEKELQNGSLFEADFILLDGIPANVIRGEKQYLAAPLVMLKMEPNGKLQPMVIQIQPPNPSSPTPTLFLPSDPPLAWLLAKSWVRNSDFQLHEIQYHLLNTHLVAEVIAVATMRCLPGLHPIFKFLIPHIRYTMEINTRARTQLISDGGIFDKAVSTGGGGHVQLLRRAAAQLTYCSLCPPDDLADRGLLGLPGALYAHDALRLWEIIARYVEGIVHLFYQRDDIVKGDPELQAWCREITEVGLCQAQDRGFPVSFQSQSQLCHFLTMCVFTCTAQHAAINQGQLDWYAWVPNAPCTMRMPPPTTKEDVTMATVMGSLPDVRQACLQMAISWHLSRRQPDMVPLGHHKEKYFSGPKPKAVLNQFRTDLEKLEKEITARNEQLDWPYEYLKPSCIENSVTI

These molecules were tested against Polyunsaturated fatty acid lipoxygenase ALOX12 (Homo sapiens) (UniProt P18054) (assay: Primary qHTS assay for inhibitors of human arachidonate 12S-lipoxygenase (ALOX12): Round 2). Details: purified 12hLO, xylenol orange hydroperoxide absorbance; activity change, negative = inhibition: at 108 µM (top of the series) unless noted.
Summary of the method: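 Purified human 12hLO (150 nM final) in 25 mM Hepes, 0.01% Triton X-100, pH 7.0 was preincubated 15 min at room temperature with compound. Then 40 uM arachidonic acid was added, 30 min. Hydroperoxide was read by Fe-XO absorbance ratio 573/405 nm.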
% is set by controls: 0 for no effect and ±100 for the full control effect; potency is the fitted concentration of half-maximal effect.

Compound | Potency | activity change, negative = inhibition
O=C1NCN(c2ccccc2)C12CCN(CCCC(c1ccc(F)cc1)c1ccc(F)cc1)CC2 | inconclusive: 8.09 µM [inhibitor, partial curve] and inconclusive: 39.8 µM [inhibitor, partial curve, poor fit] and inconclusive: 89.1 µM [inhibitor, partial curve, poor fit] | 
O=C1C(N2CCN(S(=O)(=O)c3ccccc3)CC2)CCN1Cc1ccccn1 (configuration not stated) |  | inactive: 67.5%
COc1ccc(OC)c(CNC(=O)c2ccc3c(c2)c(C)c(C)n3Cc2ccc(Cl)cc2)c1 |  | inactive: -10.7%
CN1CCC(NC(=O)Cc2c[nH]c3ncc(-c4ccccc4)cc23)CC1 | inconclusive: 70.8 µM [inhibitor, partial curve, poor fit] | 
O=C(CCc1ncc(-c2ccc(F)cc2F)o1)Nc1ccc(Cl)cc1 | inconclusive: 35.5 µM [inhibitor, partial curve, poor fit] | 
O=C(Oc1cccc(OC(=O)N2CCCCC2)c1)N1CCCCC1 | inconclusive: 0.355 µM [inhibitor, full curve, poor fit] | 
CCOc1ccc(NC(=O)c2cc3cc(Br)ccc3oc2=O)cc1 |  | inactive: 28.7%
O=c1c(CCc2ccccc2)nc2cnc(N3CCOCC3)nc2n1Cc1cccs1 | inconclusive: 50.1 µM [inhibitor, single point] | 
COc1ccccc1CN1CCN(S(=O)(=O)c2ccc(C)cc2)CC1 | inconclusive: 112 µM [inhibitor, single point] | 
COc1ccccc1Nc1nc(-c2ccc(CC(=O)N3CCOCC3)s2)cs1 | inconclusive: 28.2 µM [inhibitor, partial curve, poor fit] | 
Cc1cc(C)c(NC(=O)CSc2cccc[n+]2[O-])c(C)c1 | inconclusive: 50.1 µM [inhibitor, partial curve] | 
Cc1cccc(COc2ccc(/C=C(\C#N)c3nc4ccccc4[nH]3)cc2)c1 | inconclusive: 7.94 µM [inhibitor, full curve, poor fit] | 
Cc1c(C(=O)N(C)C(C)c2ccccn2)oc2c(F)cccc12 (configuration not stated) | inconclusive: 100 µM [inhibitor, single point] | 
O=C(NC(=S)Nc1ccccc1N1CCOCC1)c1ccco1 |  | inactive: -0.516%
CCCn1c(=O)c2ccccc2n2c(SCc3cc(=O)oc4ccc5ccccc5c34)nnc12 | inconclusive: 56.2 µM [inhibitor, partial curve, poor fit] | 
O=C(COc1ccc(Cl)cc1)N1CCN(C(=O)c2cccs2)CC1 |  | inactive: 2.13%
COc1cccc(C(=O)CC(=O)C(=O)Nc2ccc(C)cc2Cl)c1 | inconclusive: 44.7 µM [inhibitor, partial curve, poor fit] | 
